Data published in article doi:10.1101/2020.02.05.923433 (bioRxiv, 2020).
No constants are given. Whether binding was seen depends on the method and setting. A result given as binding can be weak or reduced; the word gives no strength. For some assays here: Where a sequence is shown, tags or fusion partners need not be part of it.

Protein sequences, listed by entry. Tags and fused reporters are not part of them. Residues count along the entry.
UniProt O75628, residues 76-251: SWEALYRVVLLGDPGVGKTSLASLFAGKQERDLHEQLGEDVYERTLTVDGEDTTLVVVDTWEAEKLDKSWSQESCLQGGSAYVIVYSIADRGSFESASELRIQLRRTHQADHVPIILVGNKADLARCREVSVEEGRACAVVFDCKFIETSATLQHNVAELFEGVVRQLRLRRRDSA

Columns and labels:
[1] = biological target: T1, GST-tagged, wild-type GEM (residues 62-203) (human) (UniProt P55040); test: pull-down
T1 sequence: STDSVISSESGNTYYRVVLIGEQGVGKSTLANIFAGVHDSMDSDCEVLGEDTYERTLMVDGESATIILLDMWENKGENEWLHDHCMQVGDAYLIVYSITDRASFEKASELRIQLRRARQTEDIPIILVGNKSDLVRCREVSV

[2] = biological target: GST-tagged, wild-type REM1 (residues 76-251) (human) (UniProt O75628); test: pull-down

In the case of “purified RASSF1 RA domain (from UniProt Q9NS23-2) (domain or fragment)”, the binding [1] is reported as “binds” and the binding [2] is reported as “binds”.
